# Results from paper PMC5399635 (The Journal of Pharmacology and Experimental Therapeutics, 2017).
# Conditions: rat, in vivo, 30 s, 20 μM, pH 7.4
compound,measurement,value
"CC(C)NCC(O)COc1ccc(CC(N)=O)cc1 (stereo not shown) [Atenolol, atenolol]",Brain Uptake,5.2 ± 2.2 pmol/g brain/s
